Chains of the proteins cited; added tags and fusions are not shown. Lines headed by an entry give the natural chain unless they say otherwise; changes in a name come on top.
UniProt Q9NRM2: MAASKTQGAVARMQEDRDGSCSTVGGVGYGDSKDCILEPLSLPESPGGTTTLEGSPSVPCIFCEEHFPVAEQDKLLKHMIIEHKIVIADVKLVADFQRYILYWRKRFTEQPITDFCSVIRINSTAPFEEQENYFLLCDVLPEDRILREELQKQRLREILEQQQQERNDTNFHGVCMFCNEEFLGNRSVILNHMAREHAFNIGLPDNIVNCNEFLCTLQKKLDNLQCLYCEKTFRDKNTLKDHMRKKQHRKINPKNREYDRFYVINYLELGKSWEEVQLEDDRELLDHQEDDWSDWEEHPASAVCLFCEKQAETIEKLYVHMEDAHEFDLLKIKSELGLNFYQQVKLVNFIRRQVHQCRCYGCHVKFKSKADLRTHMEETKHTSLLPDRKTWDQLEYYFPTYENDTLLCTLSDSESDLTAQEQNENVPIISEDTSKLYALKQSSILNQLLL
UniProt A6NFI3: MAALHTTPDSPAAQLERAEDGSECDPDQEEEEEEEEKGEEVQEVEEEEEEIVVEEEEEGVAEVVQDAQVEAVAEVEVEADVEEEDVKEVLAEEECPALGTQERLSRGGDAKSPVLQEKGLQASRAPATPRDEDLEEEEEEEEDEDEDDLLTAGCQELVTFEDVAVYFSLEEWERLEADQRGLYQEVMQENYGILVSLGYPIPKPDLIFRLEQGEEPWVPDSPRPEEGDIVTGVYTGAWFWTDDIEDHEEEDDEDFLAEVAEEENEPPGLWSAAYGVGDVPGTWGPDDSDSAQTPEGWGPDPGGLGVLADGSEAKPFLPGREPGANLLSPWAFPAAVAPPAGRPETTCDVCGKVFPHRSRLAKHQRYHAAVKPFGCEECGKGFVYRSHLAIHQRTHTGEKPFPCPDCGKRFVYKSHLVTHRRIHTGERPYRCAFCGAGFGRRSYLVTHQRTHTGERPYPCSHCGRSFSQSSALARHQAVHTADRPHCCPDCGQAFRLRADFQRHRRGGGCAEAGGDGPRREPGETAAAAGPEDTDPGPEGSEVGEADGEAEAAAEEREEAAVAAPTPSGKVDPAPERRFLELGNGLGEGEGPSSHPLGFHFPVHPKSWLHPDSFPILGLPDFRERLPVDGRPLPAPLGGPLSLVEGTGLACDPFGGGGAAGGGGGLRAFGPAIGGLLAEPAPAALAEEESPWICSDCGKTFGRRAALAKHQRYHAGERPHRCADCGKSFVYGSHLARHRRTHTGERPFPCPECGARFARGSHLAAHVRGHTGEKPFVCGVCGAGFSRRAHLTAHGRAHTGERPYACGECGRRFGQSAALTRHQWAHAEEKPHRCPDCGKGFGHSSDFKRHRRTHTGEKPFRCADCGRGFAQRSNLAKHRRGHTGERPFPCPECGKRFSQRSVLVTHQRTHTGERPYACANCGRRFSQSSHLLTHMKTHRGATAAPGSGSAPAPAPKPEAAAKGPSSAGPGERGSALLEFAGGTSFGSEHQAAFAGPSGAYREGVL
UniProt Q9Y3S2: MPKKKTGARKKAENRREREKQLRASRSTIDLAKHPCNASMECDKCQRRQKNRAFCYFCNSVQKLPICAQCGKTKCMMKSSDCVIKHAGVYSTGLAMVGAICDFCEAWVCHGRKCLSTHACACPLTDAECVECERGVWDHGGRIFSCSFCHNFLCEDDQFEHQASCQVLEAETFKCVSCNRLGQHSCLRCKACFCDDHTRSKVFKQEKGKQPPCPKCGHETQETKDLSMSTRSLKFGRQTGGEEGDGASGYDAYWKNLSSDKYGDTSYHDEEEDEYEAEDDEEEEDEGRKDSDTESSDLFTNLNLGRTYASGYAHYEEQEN

This is one part of the list.
These molecules were tested against ZNF277 (UniProt Q9NRM2) (assay: log2 fold change, soluble protein after heating vs DMSO (PISA); higher = thermal stabilisation; K562 cells, 10 uM, 30 min; active = over 0.2 and 3.5 SD of the protein, either way, in both replicates (recomputed)).
How it was run: (§1)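 K562 cells at 2×10^6 cells/mL were exposed to 10 μM compound for 30 min, then aliquots were heated for 3 min across 48°C-58°C, pooled, and extracted in PBS containing 0.5% NP-40 at 4°C. The supernatant after 21,000xg for 90 min was taken as soluble protein and measured by TMTpro 16plex LC-MS/MS with channel sums equalised. Thermal stability is reported relative to control samples, with values from duplicates. Fold changes are given on a log2 scale.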
Cc1cccc(CC(=O)N2CCc3c2ccc(-c2cn(C)c4ncnc(N)c24)c3F)n1 was tested, and the log2 fold change was inactive: 0.045. For CCCCN(Cc1ccc(C(=O)NO)cc1)C(=O)Nc1ccccc1 [Nexturastat A], the log2 fold change was inactive: 0.276. With O=C1NC(=O)C(c2cnc3ccccn23)=C1c1cn2c3c(cc(F)cc13)CN(C(=O)N1CCCCC1)CC2 the log2 fold change was inactive: 0.124. For CC(C)(O)CC(=O)NCCn1ccc2ncnc(Nc3ccc(Oc4cccc(C(F)(F)F)c4)c(Cl)c3)c21, the log2 fold change was inactive: -0.002. In the case of O=C(CCCCCCC(=O)Nc1ccccc1)NO [vorinostat], the log2 fold change is reported as inactive: -0.022. Cc1ccc(Sc2cncc3sc(C(N)=O)cc23)cc1 was tested, and the log2 fold change was inactive: -0.032. In the case of CS(=O)(=O)CCNCc1ccc(-c2ccc3ncnc(Nc4ccc(OCc5cccc(F)c5)c(Cl)c4)c3c2)o1 [lapatinib], the log2 fold change is reported as inactive: 0. CCCS(=O)(=O)Nc1ccc(F)c(C(=O)c2c[nH]c3ncc(Cl)cc23)c1F was tested, and the log2 fold change was inactive: 0.028. In the case of CC[C@@H]1C(=O)N(C)c2cnc(Nc3ccc(C(=O)N[C@H]4CC[C@H](N5CCN(CC6CC6)CC5)CC4)cc3OC)nc2N1C(C)C [volasertib], the log2 fold change is reported as inactive: -0.017. For Cn1cncc1[C@@](N)(c1ccc(Cl)cc1)c1ccc2c(c1)c(-c1cccc(Cl)c1)cc(=O)n2C [tipifarnib], the log2 fold change was inactive: 0.044. With COc1cc2nc(-c3cc(F)ccc3O)nc(N[C@@H]3CNC[C@H]3C(C)(C)O)c2cc1OC the log2 fold change was inactive: 0.268. C[C@@H]1COCCN1c1cc(C2(S(C)(=O)=O)CC2)nc(-c2cccc3[nH]ccc23)n1 was tested, and the log2 fold change was inactive: -0.566. With Cc1cc(Nc2cc(CN3CCOCC3)c3nc(C)c(Cc4ccc(Cl)cc4F)n3n2)n[nH]1 [gandotinib] the log2 fold change was inactive: 0.041. For CS(=O)(=O)N1CCN(Cc2cc3nc(-c4cccc5[nH]ncc45)nc(N4CCOCC4)c3s2)CC1 [pictilisib], the log2 fold change was inactive: -0.249. CN1CCC(CNc2ccc3ncc(-c4cccc(OC(F)(F)F)c4)n3n2)CC1 was tested, and the log2 fold change was inactive: 0.077. With Fc1ccc(Cl)cc1-c1nc(Nc2ccncc2)c2nccnc2n1 the log2 fold change was active: -0.765. CC[C@H](C)[C@H](NC(=O)[C@H]([C@@H](C)CC)N(C)C(C)=O)C(=O)N[C@H](C(=O)N[C@@H](CC(C)C)C(=O)[C@@]1(C)CO1)[C@@H](C)O [epoxomicin] was tested, and the log2 fold change was inactive: -0.06. In the case of CCn1cc(-c2ccnc3[nH]c(-c4cccc(CN(C)C)c4)cc23)c(-c2ccc(NC(=O)N(C)C)cc2)n1, the log2 fold change is reported as inactive: 0.01.

These molecules were tested against ZNF316 (UniProt A6NFI3) in the same assay as above.
How it was run: as §1
With NC(=O)Nc1cc(-c2cccc(F)c2)sc1C(=O)N[C@H]1CCCNC1 the log2 fold change was inactive: -0.262. With c1cn2cc(-c3ccc4cn[nH]c4c3)nc(Nc3ccc(N4CCOCC4)cc3)c2n1 [entospletinib] the log2 fold change was inactive: -0.644. CS(=O)(=O)c1ccc(-c2cnc(N)c(C(=O)Nc3ccccc3)n2)cc1 was tested, and the log2 fold change was inactive: 0.08. CN(CCOc1ccc(C[C@@H]2SC(=O)NC2=O)cc1)c1ccccn1 (racemic) [rosiglitazone] was tested, and the log2 fold change was inactive: -0.044. With CON(C)C(=O)N1N=C(c2cc(F)ccc2F)S[C@@]1(CCCN)c1ccccc1 [filanesib] the log2 fold change was inactive: 0.123. With Cc1ccc(NC(=O)c2cccc(C(C)(C)C#N)c2)cc1Nc1ccc2ncn(C)c(=O)c2c1 the log2 fold change was inactive: 0.143. CN1CCN(c2nc(C3=C(c4c[nH]c5ccccc45)C(=O)NC3=O)c3ccccc3n2)CC1 [sotrastaurin] was tested, and the log2 fold change was inactive: -0.068. In the case of CN1CC[C@H](c2c(O)cc(O)c3c(=O)cc(-c4ccccc4Cl)oc23)[C@H](O)C1 [alvocidib], the log2 fold change is reported as inactive: -0.139. For Nc1ccccc1NC(=O)c1ccc(CNC(=O)OCc2cccnc2)cc1 [entinostat], the log2 fold change was inactive: -0.349.

What follows are molecules tested against ZNF330 (UniProt Q9Y3S2) in the same assay as above.
How it was run: as §1
For Cc1cccc(CC(=O)N2CCc3c2ccc(-c2cn(C)c4ncnc(N)c24)c3F)n1, the log2 fold change was inactive: 0.014. In the case of CCCCN(Cc1ccc(C(=O)NO)cc1)C(=O)Nc1ccccc1 [Nexturastat A], the log2 fold change is reported as inactive: 0.119. With O=C1NC(=O)C(c2cnc3ccccn23)=C1c1cn2c3c(cc(F)cc13)CN(C(=O)N1CCCCC1)CC2 the log2 fold change was inactive: -0.046. For NC(=O)Nc1cc(-c2cccc(F)c2)sc1C(=O)N[C@H]1CCCNC1, the log2 fold change was inactive: -0.038. For CC(C)(O)CC(=O)NCCn1ccc2ncnc(Nc3ccc(Oc4cccc(C(F)(F)F)c4)c(Cl)c3)c21, the log2 fold change was inactive: -0.015. c1cn2cc(-c3ccc4cn[nH]c4c3)nc(Nc3ccc(N4CCOCC4)cc3)c2n1 [entospletinib] was tested, and the log2 fold change was inactive: 0.02. In the case of CS(=O)(=O)c1ccc(-c2cnc(N)c(C(=O)Nc3ccccc3)n2)cc1, the log2 fold change is reported as inactive: -0.068. Cc1cc(Nc2cc(N3CCN(C)CC3)nc(Sc3ccc(NC(=O)C4CC4)cc3)n2)n[nH]1 [tozasertib] was tested, and the log2 fold change was inactive: 0.015. For O=C(CCCCCCC(=O)Nc1ccccc1)NO [vorinostat], the log2 fold change was inactive: -0.036. With Cc1ccc(Sc2cncc3sc(C(N)=O)cc23)cc1 the log2 fold change was inactive: -0.06. CS(=O)(=O)CCNCc1ccc(-c2ccc3ncnc(Nc4ccc(OCc5cccc(F)c5)c(Cl)c4)c3c2)o1 [lapatinib] was tested, and the log2 fold change was inactive: -0.027. In the case of CCCS(=O)(=O)Nc1ccc(F)c(C(=O)c2c[nH]c3ncc(Cl)cc23)c1F, the log2 fold change is reported as inactive: -0.027. With CC[C@@H]1C(=O)N(C)c2cnc(Nc3ccc(C(=O)N[C@H]4CC[C@H](N5CCN(CC6CC6)CC5)CC4)cc3OC)nc2N1C(C)C [volasertib] the log2 fold change was inactive: -0.002. In the case of CN(CCOc1ccc(C[C@@H]2SC(=O)NC2=O)cc1)c1ccccn1 (racemic) [rosiglitazone], the log2 fold change is reported as inactive: 0.002. For Cn1cncc1[C@@](N)(c1ccc(Cl)cc1)c1ccc2c(c1)c(-c1cccc(Cl)c1)cc(=O)n2C [tipifarnib], the log2 fold change was inactive: -0.027. CC1=C(C(=O)Nc2cc3cn[nH]c3cc2F)C(c2ccc(C(F)(F)F)cc2)CC(=O)N1 (stereo not drawn) was tested, and the log2 fold change was inactive: 0.052. COc1cc2nc(-c3cc(F)ccc3O)nc(N[C@@H]3CNC[C@H]3C(C)(C)O)c2cc1OC was tested, and the log2 fold change was inactive: 0.014. C[C@@H]1COCCN1c1cc(C2(S(C)(=O)=O)CC2)nc(-c2cccc3[nH]ccc23)n1 was tested, and the log2 fold change was inactive: -0.064. In the case of CON(C)C(=O)N1N=C(c2cc(F)ccc2F)S[C@@]1(CCCN)c1ccccc1 [filanesib], the log2 fold change is reported as inactive: 0.335. In the case of Cc1cc(Nc2cc(CN3CCOCC3)c3nc(C)c(Cc4ccc(Cl)cc4F)n3n2)n[nH]1 [gandotinib], the log2 fold change is reported as inactive: -0.023. Cc1ccc(NC(=O)c2cccc(C(C)(C)C#N)c2)cc1Nc1ccc2ncn(C)c(=O)c2c1 was tested, and the log2 fold change was inactive: -0.014. In the case of CS(=O)(=O)N1CCN(Cc2cc3nc(-c4cccc5[nH]ncc45)nc(N4CCOCC4)c3s2)CC1 [pictilisib], the log2 fold change is reported as inactive: 0.02. With CCn1c(C(=O)N(C2CC2)C2CC2)cc2c3c(ncn3C)c(Nc3cc(C)n(C)n3)nc21 the log2 fold change was inactive: 0.011. With CN1CCC(CNc2ccc3ncc(-c4cccc(OC(F)(F)F)c4)n3n2)CC1 the log2 fold change was inactive: -0.034. With Fc1ccc(Cl)cc1-c1nc(Nc2ccncc2)c2nccnc2n1 the log2 fold change was inactive: -0.021. CN1CCN(c2nc(C3=C(c4c[nH]c5ccccc45)C(=O)NC3=O)c3ccccc3n2)CC1 [sotrastaurin] was tested, and the log2 fold change was inactive: -0.143. In the case of CN1CC[C@H](c2c(O)cc(O)c3c(=O)cc(-c4ccccc4Cl)oc23)[C@H](O)C1 [alvocidib], the log2 fold change is reported as inactive: 0.005. In the case of Nc1ccccc1NC(=O)c1ccc(CNC(=O)OCc2cccnc2)cc1 [entinostat], the log2 fold change is reported as inactive: 0.005. CC[C@H](C)[C@H](NC(=O)[C@H]([C@@H](C)CC)N(C)C(C)=O)C(=O)N[C@H](C(=O)N[C@@H](CC(C)C)C(=O)[C@@]1(C)CO1)[C@@H](C)O [epoxomicin] was tested, and the log2 fold change was inactive: 0.089. For C[C@H](Nc1ncnc2nc[nH]c12)c1cc2cccc(Cl)c2c(=O)n1-c1ccccc1 [duvelisib], the log2 fold change was inactive: -0.025. CCn1cc(-c2ccnc3[nH]c(-c4cccc(CN(C)C)c4)cc23)c(-c2ccc(NC(=O)N(C)C)cc2)n1 was tested, and the log2 fold change was inactive: -0.026.

From the supplement of paper PMC10849652
